No constants are given. Whether binding was seen depends on the method and setting. For some of these results: Binding seen in cells or lysates may run through a third protein. Some results given as binding are weak or reduced against the parent protein; the word gives no strength.
Legend:
[1] = target: Ras homolog gene family member A (RhoA), mouse, endogenous in ZW13-2 or Zpl3-4 cells (mouse (endogenous in ZW13-2 and Zpl3-4 cells)) (UniProt Q9QUI0); assay: pull-down; only the binder purified
[2] = target: purified recombinant GST-RhoA (UniProt P61586); assay: pull-down; […] (10 μg/ml in 500 μl) […]; 50 mM Tris-HCl pH 7.5, 1x PBS, 10% glycerol; […]; both purified
[3] = target: Ras homolog gene family member A (RhoA), mouse, endogenous in ZW13-2 or Zpl3-4 cells (mouse (endogenous in ZW13-2 and Zpl3-4 cells)) (UniProt Q9QUI0); assay: co-IP
[4] = target: Ras homolog gene family member A (RhoA), mouse, endogenous in ZW13-2 or Zpl3-4 cells (mouse (endogenous in ZW13-2 and Zpl3-4 cells)) (UniProt Q9QUI0); assay: co-IP; […]) antibody 2 h at 4 °C, […]

Substance	binding [1]	binding [2]	binding [3]	binding [4]
purified human recombinant PrP (Hu-PrP) (from UniProt P04156 23-230)	binds	binds	–	–
cellular prion protein (PrP^C), mouse, endogenous in ZW13-2 cells (from UniProt P04925 23-230)	–	–	binds	binds

Source: PMC5386549
